This is an account of results in patent US20260109761A1.

Changes are numbered by the printed parent chain. Results are given in words; binding and its absence hold for the method and conditions named. Some binding calls cover weakened binding; strength is not graded here.

Assay [1] deals with huZIP12-ECD-GST (human) (UniProt Q504Y0). Put plainly: HTRF competition: unlabelled antibody against Tb-labelled 51B12-parent on hZIP12-ECD-GST, detected with anti-GST-XL665. (In general: In TR-FRET formats the signal depends on donor and acceptor labels being close together.)
Assay [2] has the same target. Put plainly: HTRF competition with Tb-labelled 51B12-parent for hZIP12-ECD-GST, dose response.

B1: H3_W99H_VL-par (antibody, V domains shown)
VH: QVQLVESGGGVVQPGRSLRLSCAASGFTFSDYGMHWVRQAPGKGLEWVAYISSGGTTIYYADTVKGRFTISRDNSKNTLYLQMNSLRAEDTAVYYCARHTNLYAMDYWGQGTTVTVSS
VL: DIVLTQSPDSLAVSLGERATINCRASKSVSTSGYSYMHWYQQKPGQPPKFLIYLASNLESGVPDRFSGSGSGTDFTLTISSLQAEDVAVYYCQHSREVPYTFGGGTKVEIKR
Turning to B1, the binding result with huZIP12-ECD-GST (human) [1] and in the assay with huZIP12-ECD-GST (human) [2] was “binds” throughout.

B2: H2_Y60K_L2 (antibody, V domains shown)
VH: B1 VH with Y60K, H99W
VL: B1 VL with L58K
On to B2, for which the binding result in the assay with huZIP12-ECD-GST (human) [1] and with huZIP12-ECD-GST (human) [2] was “binds” throughout.

B3: H2_T63Y_VL-par (antibody, V domains shown)
VH: B1 VH with T63Y, H99W
VL: B1 VL
As to B3, the binding result with huZIP12-ECD-GST (human) [1] and with huZIP12-ECD-GST (human) [2] was “binds” each time.

B4: H3_M105P_L2 (antibody, V domains shown)
VH: B1 VH with H99W, M105P
VL: B1 VL with L58K
B4: the binding result with huZIP12-ECD-GST (human) [1] and with huZIP12-ECD-GST (human) [2] was “binds” each time.
